PubChem BioAssay AID493014 (National Center for Advancing Translational Sciences (NCATS), 2011)
In all, about 340,000 compounds went through this assay and about 170 (0.05%) were called active. Inconclusive results, whose numbers are uncertain, are shown with a selection of clear calls. Calls follow the shape of the dose curve; as a rule, active = well fitted inhibition curve with a large enough effect in the signal ratio, with a control signal flat (not every such curve was filed as active); inconclusive = small, poorly fitted or top-dose-only effect, or effect the other way, or a change in a side signal; inactive = flat fitted curve, though single readings scatter; the % refers to the signal ratio. Potencies of inconclusive entries are doubtful fits and often do not repeat.

Test: qHTS Assay to Find Inhibitors of Chronic Active B-Cell Receptor Signaling;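 as to activity change, negative = inhibition: plate controls were basal doxycycline-induced cells for no effect and cells given 10 µM MG132 for full effect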
Details: ABC-DLBCL IkBa-CBG/CBR reporter, luminescence ratio (green luciferase fused to IkBa over red control in TMD8 lymphoma cells), 4 h; activity change, negative = inhibition: at 46.1 µM (top of the series)
Procedure, shortened: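 Doxycycline induced both beetle luciferases in TMD8 lymphoma cells; IKK-driven degradation limits the IkappaBalpha-fused green signal, while red luminescence normalises for cell number and nonspecific effects. Compounds tested up to 46 uM, 4 hrs.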
Potency is read from the fitted curve at half-maximal effect.

| SMILES | activity change, negative = inhibition | Potency |
| --- | --- | --- |
| COCCNC(=S)Nc1ccccc1[N+](=O)[O-] | inactive |  |
| Cc1ccc2oc(Nc3nc(C)c(C)c(C)n3)nc2c1 | inconclusive: 5.86% |  |
| C[C@@H]1C=CC(=O)O[C@@H]1c1ccc(C(F)(F)F)cc1 |  | inconclusive: 8.91 µM [falling, partial curve, poor fit] |
| COc1ccccc1CNC(=O)CCCC(=O)n1ncc2cc(C)ccc21 |  | inconclusive: 0.398 µM [falling, full curve, poor fit] |
| COc1ccc(CNc2ncnc3sccc23)cc1 | inactive |  |
| CC(=O)c1ccc(-n2c(CCC(=O)O)ccc2-c2ccc(Br)cc2)cc1 | inactive |  |
| COc1ccc(-n2ncc3c(NC4CCCC4)ncnc32)cc1 |  | inconclusive: 31.6 µM [falling, single point] |
| CCC(C)c1ccc(OCC(=O)NNC(=O)C2CCCCC2)cc1 (stereo not drawn) | inconclusive: -4.37% |  |
| CCOC(=O)c1c(NC(=O)CSc2nnc(C)c(=O)[nH]2)sc2c1CCCC2 |  | inconclusive: 9.2 µM [rising, partial curve, poor fit] |
| CCn1c(C)c(C(C)=O)c(N2CCN(c3ccc(F)cc3)CC2)nc1=S | inactive |  |
| Cc1ccn2cc(C(=O)N3CCCC(Nc4ccc(F)cc4)C3)nc2c1 (stereo not drawn) | inconclusive: 3.99% |  |
| CC(C)(C)NC(=O)NC(=O)CSc1cccc(C(F)(F)F)c1 | inconclusive: -1.9% |  |
| C1=C(c2ccccc2)CCN(c2ncnc3nc[nH]c23)C1 |  | inconclusive: 13 µM [falling, partial curve, poor fit] |
| Cc1ccc(N(C(=O)C2CCC(=O)N2)C2(C(=O)NC3CCCCC3)CCCCC2)cc1 (stereo not drawn) | inactive |  |
| C=CCc1cccc(/C=N/NC(=O)C(=O)Nc2ccc(C)cc2)c1O | inconclusive: -17.1% |  |
| CCn1cc(CN2CCCC(C(=O)Nc3cccc(-c4cc5ccccc5[nH]4)c3)C2)cn1 (stereo not drawn) | inconclusive: -14.9% |  |
| Cc1cc(C)cc(-n2c(C)cc(C(=S)N3CCOCC3)c2C)c1 | inconclusive: 10.6% |  |
| O=S(=O)(NCC(c1cccnc1)N1CCOCC1)c1ccccc1 (stereo not drawn) | inconclusive: 15.3% |  |
| Nc1ccc(O)c2c(=O)cc(-c3ccccc3Cl)oc12 | inconclusive: 3.76% |  |
| CCn1c(-c2cc(-c3ccccc3)sc2N)n[nH]c1=S |  | inconclusive: 35.5 µM [falling, single point] |
| COCc1c(C(=O)N/N=C/c2c[nH]c3ccccc23)nnn1-c1nonc1N | inconclusive: -11.3% |  |
| CCOc1cc([N+](=O)[O-])cc(/C=C2/NC(=O)N(Cc3ccccc3F)C2=O)c1O | inconclusive: 23% |  |
| CC(C)(C)OC(=O)N[C@@H](/C=C/c1ccccc1)C(=O)OC(C)(C)C | inconclusive: 8.43% |  |
| Cc1ccc(C)c(NC(=S)NCc2ccc3[nH]c4c(c3c2)CCCC4)c1 |  | inconclusive: 29.1 µM [falling, single point] |
| COc1ccc(/C=C\C(=O)NCC(=O)N/N=C/c2cccc(OC)c2O)cc1 | inactive |  |
| COc1ccc(N(CC(=O)Nc2ccc3c(c2)OCCO3)S(=O)(=O)c2cccnc2)cc1 | inconclusive: 9.31% |  |
| Clc1ccc(OCc2noc(-c3ccsc3)n2)c(Cl)c1 | inactive |  |

Reprinted at random: three entries already listed.

| SMILES | activity change, negative = inhibition | Potency |
| --- | --- | --- |
| O=S(=O)(NCC(c1cccnc1)N1CCOCC1)c1ccccc1 (stereo not drawn) | inconclusive: 15.3% |  |
| CCOc1cc([N+](=O)[O-])cc(/C=C2/NC(=O)N(Cc3ccccc3F)C2=O)c1O | inconclusive: 23% |  |
| C1=C(c2ccccc2)CCN(c2ncnc3nc[nH]c23)C1 |  | inconclusive: 13 µM [falling, partial curve, poor fit] |

The listing continues:

| SMILES | activity change, negative = inhibition | Potency |
| --- | --- | --- |
| Cc1c(C)n(Cc2ccc(Cl)cc2)c2ccc(C(=O)NCCN3CCOCC3)cc12 | inactive |  |
| Cc1cc(C)c(S(=O)(=O)Nc2ccc3c4c(cccc24)CC3)c(C)c1 |  | inconclusive: 0.398 µM [falling, full curve, poor fit] |
| Cc1ccc(SCC(=O)NNC(=O)c2ccc(S(C)(=O)=O)cc2)cc1 | inconclusive: 3.68% |  |
| COc1cc(-c2n[nH]c(=S)n2-c2ccccc2C(F)(F)F)cc(OC)c1OC | inconclusive: -0.835% |  |
| COc1ccc(Cl)cc1NS(=O)(=O)c1cccc(C(=O)NC2CC2)c1 | inactive |  |
| CC1CC(C)CN(S(=O)(=O)c2ccc(NC(=O)c3ccc(=O)[nH]c3)cc2)C1 (stereo not drawn) |  | inconclusive: 11.6 µM [falling, partial curve] |
| CCn1cc(/C=C/C(=O)Nc2ccc(C)cc2Br)cn1 | inconclusive: 1.51% |  |
| Cc1ncc(CO)c(/C=N/Nc2ccc(C(F)(F)F)cn2)c1O | inactive |  |
| CCn1nc(C(=O)NNC(=O)C(Cc2ccccc2)NC(N)=O)c2ccccc2c1=O (stereo not drawn) | inconclusive: -6.96% |  |
| Cc1nnc(Cn2cnc3c2c(=O)n(C)c(=O)n3C)o1 | inactive |  |
| CC(NS(=O)(=O)c1ccc(Br)s1)c1ccccc1 (stereo not drawn) | inconclusive: 0.0207% |  |
| CCCCCCC1(C)NC(=O)N(C(C)C(=O)Nc2ccc(N3CCOCC3)cc2)C1=O (stereo not drawn) | inactive |  |
| CCN(C(=O)CN1C(=O)NC(CCSC)C1=O)C1CCS(=O)(=O)C1 (stereo not drawn) | inconclusive: -0.881% |  |
| CCCC(=O)Nc1ccc(C=C(C(C)=O)C(C)=O)cc1 |  | inconclusive: 35.5 µM [falling, single point] |
| Cc1cccc(/C=N/NC(=O)c2ccc3c(c2)OCCO3)c1O |  | inconclusive: 31.6 µM [rising, single point] |
| O=C1CCCc2nn(-c3ccccc3)c(-c3ccncc3)c21 | inconclusive: 3.03% |  |
| CC(=O)c1c(C)[nH]c(C(=O)Nc2cc(C)cc(C)c2)c1C | inconclusive: -6.3% |  |
| CCc1ccc(/C=C2\SC(=S)N(CCC(=O)NCCCN3CCOCC3)C2=O)cc1 | inconclusive: -18.5% |  |
| O=C(NCCCCNCCCNC(=O)c1ccccc1)c1ccccc1 | inactive |  |
| Cc1ccc2nc(NC(=O)CSc3nc4c(c(=O)n3C)SC(C)C4)sc2c1 (stereo not drawn) | inconclusive: -23.1% |  |
| Cc1cc(C)n(CC(C)C(=O)O)n1 (stereo not drawn) |  | inconclusive: 6.31 µM [falling, single point] |
| O=C1CCCC2=C1C(c1ccccc1)C1C(=O)c3ccccc3C1=N2 (stereo not drawn) | inconclusive: 9.97% |  |
| CC(=O)c1c(C)oc2c1cc(NS(=O)(=O)c1ccc(Br)cc1)c1ccccc12 | inconclusive: -2.13% |  |
| Cc1ccc(C(=O)Nc2nnc(C)s2)o1 | inconclusive: 0.727% |  |
| CCC1=NN2C(=N)/C(=C\c3cccn3-c3ccc(OC)cc3)C(=O)N=C2S1 | inconclusive: 8.39% |  |
| CC(=O)c1nn(-c2ccc(Cl)cc2)c(=O)[nH]c1=O | inconclusive: 0.92% |  |
